Experimental data from the supplement of paper PMC10470496.
Structures can show the parent of a compound that is named as a salt. This is one part of the list. Many values rest on one well or one pass, so single values are uncertain.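 The three strains are clinical Candida auris isolates from the CDC resistance isolate bank, from clades III, IV and I, grown in RPMI-1640 at 35°C. Growth is background-corrected OD600 relative to vehicle-only wells on the same plate; a hit meant over 50% inhibition in at least two strains plus a plate-corrected B-score above 0.1.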

Experiments:
Experiment in all cases: growth relative to vehicle control (OD600 ratio) (fraction); higher = less inhibition
Settings in all cases: 24 h
C. auris AR-384 = test system: C. auris AR-384
C. auris AR-386 = test system: C. auris AR-386
C. auris AR-387 = test system: C. auris AR-387

Structure (SMILES)	growth (C. auris AR-384; 1 µM)	growth (C. auris AR-384; 10 µM)	growth (C. auris AR-386; 1 µM)	growth (C. auris AR-386; 10 µM)	growth (C. auris AR-387; 1 µM)	growth (C. auris AR-387; 10 µM)
CC(=O)O[C@]1(C(C)=O)CC[C@H]2[C@@H]3C[C@H](C)C4=CC(=O)CC[C@]4(C)[C@H]3CC[C@@]21C [Medroxyprogesterone acetate]	1.17	1.38	1.02	1.34	0.92	1.17
COc1cc2nccc(Oc3ccc(NC(=O)NC4CC4)c(Cl)c3)c2cc1C(N)=O [Lenvatinib (E7080)]	1.11	0.86	1.61	1.27	1.21	1.53
CCOc1cc(CC(=O)N[C@@H](CC(C)C)c2ccccc2N2CCCCC2)ccc1C(=O)O [Repaglinide]	0.92	0.65	0.57	0.67	0.84	0.69
CC(C(=O)O)c1ccc(CC2CCCC2=O)cc1 (configuration not stated) [Loxoprofen]	0.96	0.7	0.83	0.66	0.96	0.83
CC1(C)S[C@@H]2[C@H](NC(=O)[C@H](NC(=O)N3CCN(S(C)(=O)=O)C3=O)c3ccccc3)C(=O)N2[C@H]1C(=O)O [Mezlocillin Sodium]	0.93	0.95	0.96	1.1	0.85	1.13
Cc1cnc(NC(=O)C2=C(O)c3ccccc3S(=O)(=O)N2C)s1 [Meloxicam]	0.97	1.39	1.28	0.95	1.13	1.01
OC(CCCN1CCCCC1)(c1ccccc1)c1ccccc1 [Diphenidol HCl]	0.97	0.87	0.79	1.01	0.67	1.05
CCN(CCCc1ccccc1)CCCc1ccccc1 [Alverine Citrate]	0.95	0.96	0.77	1.39	0.89	1.09
CN1CCN(CC(=O)N2c3ccccc3C(=O)Nc3cccnc32)CC1 [Pirenzepine dihydrochloride]	0.87	0.66	0.8	0.54	0.83	0.84
CC(=O)O[C@H]1C[C@@H]2CC[C@@H]3[C@H](CC[C@@]4(C)[C@H]3C[C@H]([N+]3(C)CCCCC3)[C@@H]4OC(C)=O)[C@@]2(C)C[C@@H]1N1CCCCC1 [Vecuronium Bromide]	0.61	1.01	0.96	0.76	0.81	0.86
O=C(/C=C\n1cnc(-c2cc(C(F)(F)F)cc(C(F)(F)F)c2)n1)NNc1cnccn1 [Selinexor (KPT-330)]	0.93	1.08	0.94	0.81	1.13	0.9
NCCS [Cysteamine HCl]	1.21	1.26	1.16	1.16	1.14	1.08
O=C(Nc1cccc2c(=O)cc(-c3nnn[nH]3)oc12)c1ccc(OCCCCc2ccccc2)cc1 [Pranlukast]	0.67	0.75	0.78	0.78	0.99	0.79
CCn1c(=O)c(-c2cc[nH]n2)cc2c(C)nc(N)nc21	0.78	0.7	0.86	0.91	0.69	0.74
COC(=O)C1=C(C)NC(C)=C(C(=O)OCCN2CCN(C(c3ccccc3)c3ccccc3)CC2)C1c1cccc([N+](=O)[O-])c1 (configuration not stated) [Manidipine]	0.92	1.48	0.99	1.3	1.1	0.95
COc1ccc2cccc(CCNC(C)=O)c2c1 [Agomelatine]	0.77	0.5	0.55	0.78	0.75	0.82
Cc1cccn2c(=O)c(-c3nnn[nH]3)cnc12 [Pemirolast potassium]	0.69	0.71	0.85	0.55	1	1.14
C[C@H](N)[C@H](O)c1cccc(O)c1 [Metaraminol Bitartrate]	1.22	1	0.88	1.2	1.02	1.07
CCN(CC)CCNC(=O)c1ccc(N)cc1 [Procainamide HCl]	1.11	1.19	0.83	1.05	0.84	0.98
CC(=O)NCCCS(=O)(=O)O [Acamprosate Calcium]	0.74	0.64	0.62	0.78	0.94	0.57
C=CCNC1=C2C[C@@H](C)C[C@H](OC)[C@H](O)[C@@H](C)/C=C(\C)[C@H](OC(N)=O)[C@@H](OC)/C=C\C=C(/C)C(=O)NC(=CC1=O)C2=O [Tanespimycin (17-AAG)]	1.02	0.94	0.93	0.99	0.86	1.18

Structure (SMILES)	growth (C. auris AR-384; 1 µM)	growth (C. auris AR-384; 10 µM)	growth (C. auris AR-386; 1 µM)	growth (C. auris AR-386; 10 µM)	growth (C. auris AR-387; 1 µM)	growth (C. auris AR-387; 10 µM)
CCCCS(=O)(=O)N[C@@H](Cc1ccc(OCCCCC2CCNCC2)cc1)C(=O)O [Tirofiban Hydrochloride]	1.23	1.29	1.02	1.25	1.26	1.3
CC(COc1ccccc1)N(CCCl)Cc1ccccc1 (configuration not stated) [Phenoxybenzamine HCl]	0.69	0.82	0.84	0.85	0.75	0.76
CCOc1ccc(Cc2cc([C@@H]3O[C@H](SC)[C@@H](O)[C@H](O)[C@H]3O)ccc2Cl)cc1 [Sotagliflozin (LX4211)]	1.19	1.3	1.19	1.36	1.37	1.44
COc1ccc2c(c1)C(=O)N(CCc1ccc(S(=O)(=O)NC(=O)NC3CCCCC3)cc1)C(=O)C2(C)C [Gliquidone]	0.92	1.1	1	0.95	1.19	0.99
CC(C)NCC(O)c1ccc(O)c(O)c1 (configuration not stated) [Isoprenaline HCl]	0.81	0.74	1.21	1.27	0.99	1.2
CN1CCC[C@H]1c1cccnc1 [Nicotine Ditartrate]	1.08	0.89	0.93	1	0.91	0.92
CCOc1ccc(NC(=O)CC(C)O)cc1 (configuration not stated) [Bucetin]	0.87	0.82	0.92	0.81	0.69	1.04
CN1C2CCCC1CC(NC(=O)c1nn(C)c3ccccc13)C2 (configuration not stated) [Granisetron HCl]	0.57	0.74	0.82	0.81	0.97	0.83
COc1ccc(-n2nc(C(N)=O)c3c2C(=O)N(c2ccc(N4CCCCC4=O)cc2)CC3)cc1 [Apixaban]	1.05	1.29	1.32	0.87	0.97	0.85
CN(C)[C@@H](CCOc1cccc2ccccc12)c1ccccc1 [Dapoxetine HCl]	1.05	1.16	0.95	1.08	1.4	1.08
COc1cc2nccc(Oc3ccc(NC(=O)Nc4cc(C)on4)c(Cl)c3)c2cc1OC [Tivozanib (AV-951)]	1.47	0.71	0.84	1.36	1.19	0.97
CN(C)CCOC(c1ccc(Cl)cc1)c1ccccn1 (configuration not stated) [CarbinoxaMine Maleate]	1.06	1.12	1.03	1.09	0.66	1.28
CN1C(CCl)Nc2cc(Cl)c(S(N)(=O)=O)cc2S1(=O)=O (configuration not stated) [Methyclothiazide]	0.93	0.64	0.86	0.67	0.71	0.83
CC1=CC(=O)c2ccccc2C1=O [Menadione]	0.97	1.06	0.99	1.13	0.73	1.24
CCS(=O)(=O)CCn1c([N+](=O)[O-])cnc1C [Tinidazole]	0.84	0.79	0.74	0.75	0.7	0.65
CCOC(=O)[C@H](CCc1ccccc1)N[C@H]1CCc2ccccc2N(CC(=O)O)C1=O [Benazepril HCl]	0.88	0.68	1.06	1.13	0.8	1.2
CCOc1nc2cccc(C(=O)O)c2n1Cc1ccc(-c2ccccc2-c2nnn[nH]2)cc1 [Candesartan]	1.15	1.02	0.72	1.27	1.04	0.89
CN1CCN(C2=Nc3ccccc3Oc3ccc(Cl)cc32)CC1 [Loxapine Succinate]	0.98	0.89	0.83	0.89	1.02	0.79
CN(C)CCC=C1c2ccccc2CCc2ccccc21 [Amitriptyline HCl]	0.94	0.94	0.97	0.88	1.1	1.09
CCNC(=O)[C@@H]1CCCN1C(=O)[C@H](CCCNC(=N)N)NC(=O)[C@H](CC(C)C)NC(=O)[C@@H](CC(C)C)NC(=O)[C@H](Cc1ccc(O)cc1)NC(=O)[C@H](CO)NC(=O)[C@H](Cc1c[nH]c2ccccc12)NC(=O)[C@H](Cc1c[nH]cn1)NC(=O)[C@@H]1CCC(=O)N1 [Leuprolide Acetate]	1.27	1.22	1.76	1.26	1.78	1.24
CC1(C)[C@H](C(=O)O)N2C(=O)C[C@H]2S1(=O)=O [Sulbactam]	0.69	0.82	0.91	0.69	0.78	0.72

Part of the list above in order of number of heavy atoms, high to low.
Structure (SMILES)	growth (C. auris AR-384; 1 µM)	growth (C. auris AR-384; 10 µM)	growth (C. auris AR-386; 1 µM)	growth (C. auris AR-386; 10 µM)	growth (C. auris AR-387; 1 µM)	growth (C. auris AR-387; 10 µM)
COc1ccc(-n2nc(C(N)=O)c3c2C(=O)N(c2ccc(N4CCCCC4=O)cc2)CC3)cc1 [Apixaban]	1.05	1.29	1.32	0.87	0.97	0.85
CCS(=O)(=O)CCn1c([N+](=O)[O-])cnc1C [Tinidazole]	0.84	0.79	0.74	0.75	0.7	0.65
CC(C)NCC(O)c1ccc(O)c(O)c1 (configuration not stated) [Isoprenaline HCl]	0.81	0.74	1.21	1.27	0.99	1.2
